PubChem BioAssay AID1347075 (National Center for Advancing Translational Sciences (NCATS), 2019)
Where “and” joins values, the source holds several entries; their conditions need not be identical. Equal values may be shown once. About 5,500 (1.4%) of roughly 400,000 compounds were called active. The inconclusive results got no clear call from the source; some entries with a clear call stand among them for comparison. The call rests on the fitted dose curve; in most records, active means well fitted cell-killing curve with a large enough effect; inconclusive means small, poorly fitted or top-dose-only effect, or effect the other way; inactive means flat fitted curve, though single readings scatter. Potencies of inconclusive entries are doubtful fits and often do not repeat.

Experiment: qHTS assay for MDR1-selective chemotherapeutics: Primary screen using the parental adenocarcinoma cell KB-3-1; further: nearly all actives have a fitted effect of over 60% in size
Conditions: KB-3-1 viability, CellTiter-Glo ATP luminescence, 72 h; activity change, negative = cytotoxic: at 46.1 µM (top of the series)
In short: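 Here the drug-naive KB-3-1 line serves as comparator for MDR sub-line selectivity; cells received compound titrations, 72 h at 37 °C, then CellTiter-Glo readout.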
On the % scale 0 is the no-effect control and ±100 the full control effect; potency means the concentration at half of the fitted maximal effect.

| SMILES | activity change, negative = cytotoxic | Potency |
| --- | --- | --- |
| COc1cc2c(cc1OC)C(NNC(=O)c1ccc(Br)o1)=NC(C)(C)C2 | inactive: -17.7% |  |
| Cc1ccccc1C(=O)N=c1ccn(-c2nc3ccccc3nc2NS(=O)(=O)c2ccc(F)cc2)cc1 |  | inconclusive: 29.1 µM [cytotoxic, single point] |
| CNC(=O)C1CCN(S(=O)(=O)c2c(C)noc2/C=C/N(C)C)CC1 |  | inconclusive: 5.8 µM [rising, partial curve] |
| COc1ccc(CN2CCn3ncc(C(=O)Nc4cccc(C)c4)c3C2=O)cc1 |  | inconclusive: 23.1 µM [cytotoxic, single point] |
| O=C1CC(NS(=O)(=O)c2cc(F)ccc2F)CN1c1ccc2c(c1)OCCO2 (configuration not stated) | inactive: 3.42% |  |
| O=C(CSc1nnc(-c2cccc(S(=O)(=O)N3CCCCC3)c2)o1)NCCC1=CCCCC1 | inactive: -0.488% |  |
| Cc1ccc(CSc2nnc(-c3ccccn3)n2Cc2cccs2)cc1 |  | inconclusive: 29.1 µM [cytotoxic, single point] |
| O=[N+]([O-])c1cccnc1N1CCC(c2cc(-c3cccc(C(F)(F)F)c3)n[nH]2)CC1 |  | inconclusive: 25.9 µM [cytotoxic, partial curve, poor fit] |
| COc1ccccc1/C=C/C(=O)OCC(=O)NNC(=O)c1ccccc1 | inconclusive: 1.22% |  |
| Cc1cccc(NC(c2ccccc2C)c2ccc3ccc(C)nc3c2O)n1 (configuration not stated) | inactive: -9.35% |  |
| COc1ccc(/C(C)=N/N2C(C)CCCC2C)c(OC)c1 (configuration not stated) | inactive: 12.1% |  |
| COC(=O)c1ccc(C(=O)OC)c(NC(=S)N2CCN(C)CC2)c1 | inactive: -3.48% |  |
| CCN1/C(=C/c2ccc3ccccc3[n+]2CC)C=Cc2ccccc21 |  | active: 0.82 µM |
| O=S(=O)(NCc1cc(-c2ccccc2Cl)no1)c1ccc(Cl)cc1 | inactive: -2.38% |  |
| O=C(Cc1ccc2c(c1)OCCO2)N/N=C/c1ccco1 | inactive: 0% |  |
| CCOC(CNC(=O)c1cc(C)nn1-c1ccccc1)OCC | inactive: 2.16% |  |
| O=C(C[C@H]1CC[C@@H]2[C@H](COC[C@@H](O)CN2Cc2cccc(F)c2)O1)NCC1CCCCC1 |  | inconclusive: 18.4 µM [cytotoxic, single point] |
| Clc1cccc(CNc2ccn3nc(-c4ccc(OCCN5CCOCC5)cc4)cc3n2)c1 |  | inconclusive: 29.1 µM [cytotoxic, single point] |
| O=C(CNc1cccc(S(=O)(=O)N2CCOCC2)c1)Nc1cccc(Br)c1 |  | inconclusive: 32.6 µM [cytotoxic, single point] |
| Cc1ncc(C23CC4CC(CC(C4)C2)C3)[nH]1 |  | inconclusive: 11.6 µM [cytotoxic, full curve] |
| COc1ccc(CNC(=O)Cn2nc(N3CCN(c4ccccc4)CC3)ccc2=O)c(OC)c1 | inactive: -13.6% |  |
| Cn1cc(/C=C/c2ccc3ccccc3n2)c2ccccc21 |  | inconclusive: 18.4 µM [cytotoxic, single point] |
| Nc1nncn1C(=O)c1ccc(Cl)cc1Cl | inactive: -1.07% |  |
| Cn1c(=O)c2c(nc(Cl)n2CCOc2ccccc2)n(C)c1=O | inactive: -4.9% |  |

| SMILES | activity change, negative = cytotoxic | Potency |
| --- | --- | --- |
| CCNc1cc(S(=O)(=O)C(F)(F)F)ccc1N |  | inconclusive: 25.9 µM [cytotoxic, partial curve, poor fit] |
| COc1ccc(/C=N/NC(=O)c2[nH]c3ccc(Br)cc3c2-c2ccccc2)c(C(=O)O)c1OC | inactive: -7.09% |  |
| CN(C)S(=O)(=O)c1ccc(Cl)c(NC(=O)CN2CCN(Cc3ccc4c(c3)OCO4)CC2)c1 |  | inconclusive: 16.4 µM [cytotoxic, single point] |
| CCN(CC)c1nc2c(S(=O)(=O)c3cccc(Cl)c3)nnn2c2ccsc12 | inactive: -11.9% |  |
| Cc1cccc(OCC(O)Cn2c(=N)n(CCN3CCCCC3)c3ccccc32)c1 (configuration not stated) |  | inconclusive: 461 nM [cytotoxic, partial curve] and inconclusive: 20.6 µM [cytotoxic, single point] |
| CCC1CCc2sc(C(=O)NCC(c3ccc(OC)cc3)N3CCCC3)cc2C1 (configuration not stated) |  | inconclusive: 32.6 µM [cytotoxic, single point] |
| Cc1ccc(OCCCCNC(C)c2ccccc2)c(C)c1 (configuration not stated) | inconclusive: -49.9% |  |
| COCCCn1c(C(=O)N2CC(C)OC(C)C2)cc2c(=O)n3ccccc3nc21 (configuration not stated) | inconclusive: 38.3% |  |
| COc1cc(NC(=O)N2CCC3(CC2)Nc2cc(F)ccc2-n2cccc23)cc(OC)c1OC |  | inconclusive: 2.91 µM [cytotoxic, full curve, poor fit] |
| CC(C)(C)c1ccc(C(=O)NCC2CCCN2S(=O)(=O)c2ccccc2)cc1 (configuration not stated) |  | inconclusive: 29.1 µM [cytotoxic, single point] |
| NS(=O)(=O)c1ccc(NC(=O)c2cc(Cl)sc2Cl)cc1 | inconclusive: -52.5% |  |
| Cc1ccc(Nc2nc(=O)c3cccnc3s2)c(Br)c1 |  | inconclusive: 13 µM [cytotoxic, partial curve] |
| COc1ccc(CCNC(=O)c2nnn(CC(=O)Nc3ccc(C)cc3C)c2N)cc1OC |  | inconclusive: 29.1 µM [cytotoxic, single point] |
| CCOC(=O)[C@]12CCC=C1N(Cc1ccccc1)C(=O)[C@H](CC(=O)NCc1cccc(C(F)(F)F)c1)C2 | inactive: -4.52% |  |
| O=[N+]([O-])c1cccnc1S(=O)(=O)c1ccccc1 |  | inconclusive: 29.1 µM [cytotoxic, single point] |
| Cc1ccc(C)c(NC(=S)c2ccccn2)c1 | inactive: -0.644% |  |
| CCc1ccc(-c2nn(CC(=O)Nc3ccccc3C)c3c2cnc2ccc(C)cc23)cc1 | inactive: 6.83% |  |
| CC(NC(=O)COc1cccnc1[N+](=O)[O-])c1ccc(Cl)cc1 (configuration not stated) |  | inconclusive: 16.4 µM [rising, single point] |
| Cc1cc(C)c(S(=O)(=O)N2CCN(C(=O)c3ccc(-n4nc(C)c(Cl)c4C)cc3)CC2)c(C)c1 |  | inconclusive: 29.1 µM [cytotoxic, single point] |
| CCCc1nc2ccccc2n1Cc1ccccc1OC |  | inconclusive: 16.4 µM [cytotoxic, single point] |
| O=C(Nc1ccc(N2CCCC2)cc1)c1cc([N+](=O)[O-])ccc1N1CCOCC1 |  | inconclusive: 1.84 µM [cytotoxic, full curve, poor fit] |
| CCCN1CNC(=S)N(c2ccc(C(=O)OCC)cc2)C1 | inactive: -0.942% |  |
| CCOc1ccc(NC(=O)c2ccc(N3CC4CC(C3)c3cccc(=O)n3C4)c(NC(=O)c3ccncc3)c2)cc1 (configuration not stated) |  | inconclusive: 6.51 µM [rising, partial curve, poor fit] |
| Cc1ccc(Nc2nc(CSc3nnc(-c4ccc(F)cc4)n3C)cs2)cc1 |  | inconclusive: 29.1 µM [cytotoxic, single point] |

2 entries drawn at random from the list so far:

| SMILES | activity change, negative = cytotoxic | Potency |
| --- | --- | --- |
| COc1cc(NC(=O)N2CCC3(CC2)Nc2cc(F)ccc2-n2cccc23)cc(OC)c1OC |  | inconclusive: 2.91 µM [cytotoxic, full curve, poor fit] |
| CCCc1nc2ccccc2n1Cc1ccccc1OC |  | inconclusive: 16.4 µM [cytotoxic, single point] |

A run of entries from further up:

| SMILES | activity change, negative = cytotoxic | Potency |
| --- | --- | --- |
| CCOC(=O)[C@]12CCC=C1N(Cc1ccccc1)C(=O)[C@H](CC(=O)NCc1cccc(C(F)(F)F)c1)C2 | inactive: -4.52% |  |
| O=[N+]([O-])c1cccnc1S(=O)(=O)c1ccccc1 |  | inconclusive: 29.1 µM [cytotoxic, single point] |

Following part

| SMILES | activity change, negative = cytotoxic | Potency |
| --- | --- | --- |
| O=S(=O)(CCSc1ccccn1)c1nc2ccccc2s1 | inactive: -5.07% |  |
| Cc1cccc(-c2nc(CSCC(=O)NCCc3ccc(Cl)cc3)c(C)o2)c1 | inactive: -9.18% |  |
| Cc1ccc(CNC(=O)c2ccc(-c3nc(CS(=O)c4ccccc4)c(C)o3)cc2)cc1 (configuration not stated) | inactive: 4.36% |  |
| O=C(CCCn1c(=S)[nH]c2cc3c(cc2c1=O)OCO3)N1CCN(c2ccccc2)CC1 | inactive: -11% |  |
| O=C(NC(c1ccc(F)cc1)c1ccc2ccccc2n1)C1CCN(Cc2ccc3ccccc3n2)CC1 (configuration not stated) |  | inconclusive: 29.1 µM [cytotoxic, single point] |
| O=C(NCC1CCCN(C(=O)c2cccnc2)C1)c1ccc(-c2ccccc2)cc1 (configuration not stated) | inactive: -6.56% |  |
| CCOC(=O)[C@H](CCc1ccccc1)N[C@@H](C)C(=O)N1CCC[C@@H]1C(=O)O | inactive: 0% |  |
| Cc1cc(C)cc(CSCC(=O)N/N=C/c2ccc(OCC(=O)NCc3ccco3)cc2)c1 |  | inconclusive: 20.6 µM [cytotoxic, single point] |
| CCc1ccc2nc(SCC(=O)Nc3ccccc3N3CCOCC3)c(C#N)cc2c1 |  | active: 5.17 µM |
| COc1cc(/C=N/Nc2ccc(Cl)c(C(=O)O)c2)ccc1OC(=O)c1ccccc1F | inactive: 1.28% |  |
| C[C@H](CO)N1C[C@H](C)[C@@H](CN(C)C(=O)c2cc(-c3ccccc3)on2)OCc2cn(nn2)CCCC1=O |  | inconclusive: 29.1 µM [rising, single point] |
| CCOc1ccc(C(=O)CCC(=O)Nc2ncccc2O)cc1 |  | inconclusive: 8.2 µM [rising, partial curve, poor fit] |
| CCOc1ccc(NC(=O)N2CC(C)OC(C)C2)cc1 (configuration not stated) | inactive: 4.72% |  |
| O=C(N/N=C/c1ccc[nH]1)c1cc(-c2ccc(Cl)cc2)nc2ccccc12 |  | inconclusive: 29.1 µM [cytotoxic, single point] |
| CCc1ccccc1NC(=O)C1CCN(C(=O)N2CC(C)Oc3ccc(Cl)cc32)CC1 (configuration not stated) | inactive: -25.5% |  |
| O=CNc1cc(-c2ccc(C(=O)NC3CC3)cc2)cn2c(-c3ccccc3)cnc12 |  | inconclusive: 29.1 µM [cytotoxic, single point] |
| CCn1c(SCC(=O)N/N=C/c2ccc(OC)c(OC)c2)nc2ccccc21 | inactive: 9.72% |  |
| C=CCOc1ccc(-c2nc3c(c(=O)[nH]c(=O)n3CCCC)n2C)cc1OC |  | inconclusive: 7.31 µM [rising, partial curve, poor fit] |
| CC1(C)Cc2nc3sc4c(=O)n(CC(=O)NCc5ccco5)cnc4c3cc2CO1 |  | inconclusive: 29.1 µM [cytotoxic, single point] |
| N=C1SCC(=O)N1c1ccc(Cl)cc1 |  | active: 14.6 µM |
| CNCCCCOc1ccc(C(C)(C)C)cc1Cl |  | inconclusive: 29.1 µM [cytotoxic, partial curve, poor fit] |
| COC(=O)N/N=C(\C)c1ccc(C)c([N+](=O)[O-])c1 | inactive: -12.5% |  |
| CCOc1ccccc1N1CCN(C(=O)c2cccc(S(=O)(=O)N3CCOCC3)c2)CC1 |  | inconclusive: 2.59 µM [cytotoxic, partial curve, poor fit] |
| COc1ccc(/C=N/NC(=O)c2cccnc2)cc1CSc1nc2ccccc2s1 |  | inconclusive: 29.1 µM [cytotoxic, single point] |
